Out of some 350,000 compounds screened, about 220 (0.063%) were called active. Inconclusive means that the source gave no clear call. Such entries were picked first, then a sample of the others. Calls follow the shape of the dose curve; as a rule, active = well fitted activation curve with a large enough effect; inconclusive = small, poorly fitted or top-dose-only effect; inactive = no such curve, though single readings can be large or run the other way. Potencies of inconclusive entries are doubtful fits and often do not repeat.
Test: qHTS for Activators of Integrin-Mediated Alleviation for Muscular Dystrophy; also: nearly all actives have a fitted effect of over 60% in size;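 as to activation: 100% = response of the positive control SU9516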
Details: alpha7betagal myoblasts, beta-gal FDG fluorescence, 48 h; activation: at 38.3 µM (top of the series)
Outline: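 Alpha7betagal+/- myoblasts (passage 13) were plated 16-24 hr, then exposed to compounds (1:260 dilution of DMSO stock) for 48 hours at 37C. After MPER lysis, β-galactosidase reporter activity was read as FDG fluorescence (ex 480/em 540) after 30 minutes.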
Potency is read from the fitted curve at half-maximal effect.

| SMILES | Potency | activation |
| --- | --- | --- |
| Cc1cc(NC(=O)Cc2ccccc2)c2ccccc2n1 | inconclusive: 1.78 µM [activator, single point] | – |
| CCOc1cccc(-c2nc3cc(C)ccc3o2)c1 | inactive | – |
| COc1cccc(CN2CC(C(=O)N3CCCO3)CCC2=O)c1 (stereo not drawn) | inactive | – |
| COC(=O)CC1C(=O)NCCN1C(=S)Nc1ccccc1Cl (stereo not drawn) | inconclusive: 15.8 µM [activator, single point] | – |
| O=C(Cn1c2ccccc2c(=O)c2ccccc21)Nc1ccccc1F | inactive | – |
| CC(C)c1cc(C(=O)OCC(=O)NC(=O)NCc2ccco2)c(O)c(C(C)C)c1 | inconclusive: 3.55 µM [activator, single point] | – |
| CC(=O)N1CCc2c(sc(NC(=O)CCS(=O)(=O)c3ccc(C)cc3)c2C#N)C1 | inconclusive: 0.891 µM [activator, partial curve, poor fit] | – |
| COc1cc(NC(=O)CCS(=O)(=O)c2ccc3nc(C)sc3c2)cc(OC)c1OC | inactive | – |
| COc1ccc(NC(=O)Nc2c(C)noc2-c2ccccc2)cc1 | inconclusive: 28.2 µM [activator, single point] | – |
| CCCCCCN1CC(=O)N2Cc3[nH]c4ccccc4c3C[C@H]2C1=O | inactive | – |
| Cc1cccc(C)c1NC(=O)C(c1ccccc1)N1CCN(C(=O)c2ccco2)CC1 (stereo not drawn) | inconclusive: 5.62 µM [activator, single point] | – |
| CC(CCc1ccccc1)NCC(O)COc1ccccc1 (stereo not drawn) | inactive | – |
| COc1ccccc1C(=O)NC(=O)COC(=O)Cc1ccc(F)cc1 | inconclusive: 5.62 µM [activator, partial curve, poor fit] | – |
| O=C(NCC(c1ccco1)N1CCCC1)c1cc(=O)[nH]c2ccccc12 (stereo not drawn) | inactive | – |
| CCOC(=O)C1=C(c2ccccc2)Nc2ncnn2C1c1ccc(C(=O)O)cc1 (stereo not drawn) | inconclusive: 28.2 µM [activator, single point] | – |
| CCOc1ccc(-c2nnc(NC(=O)c3ccc(OCC(C)C)c(OC)c3)o2)cc1 | inactive | – |
| Cc1ccc(-c2cc3nc(-c4ccccc4)cc(N4CCC5(CC4)OCCO5)n3n2)cc1 | inactive | – |
| CN1/C(=C\C=[N+](C)c2ccccc2)C(C)(C)c2ccccc21 | – | inconclusive: -55.6% [activator] |
| O=C(Nc1ccncc1)C1CCC(CNS(=O)(=O)c2cccc3nsnc23)CC1 (stereo not drawn) | inconclusive: 1.41 µM [activator, partial curve, poor fit] | – |
| Cc1onc(-c2c(Cl)cccc2Cl)c1NC(=O)NC1CCSC1 (stereo not drawn) | inconclusive: 0.447 µM [activator, partial curve, poor fit] | – |
| N#C/C(=N\Nc1ccccc1)C(=N)N1CCCCCC1 | inactive | – |
| Cc1ccc(NC(=O)CNC(=O)OCc2ccccc2)cc1C | inconclusive: 28.2 µM [activator, single point] | – |
| COc1ccc(C2Nc3ccccc3C(=O)N2Cc2ccccc2)cc1COc1ccccn1 (stereo not drawn) | inactive | – |
| CN(Cc1ccc(F)cc1)C(=O)c1cccc(OC2CCN(C3CCCC3)CC2)c1 | inconclusive: 5.01 µM [activator, single point] | – |
| CCC(=O)Oc1ccc(NC(=O)CSCc2ccccc2)cc1 | inconclusive: 7.94 µM [activator, partial curve, poor fit] | – |

| SMILES | Potency | activation |
| --- | --- | --- |
| N/C(Cc1cccc2ccccc12)=N\OC(=O)c1cccs1 | inactive | – |
| Fc1ccc(NC(=S)N2CCCC2)cc1Cl | inactive | – |
| CCOC(=O)N1CCN(C(=O)c2cc(COc3cccc(C(F)(F)F)c3)on2)CC1 | inconclusive: 2.82 µM [activator, single point] | – |
| Cc1ccc(-c2csc(NC(=O)c3cccc(N4C(=O)CCC4=O)c3)n2)o1 | inactive | – |
| CCc1nnc(NC(=O)c2ccc(-c3ccc(Cl)cc3)o2)s1 | inconclusive: 20 µM [activator, single point] | – |
| O=C1C2CCCCN2C(=O)N1CCCCN1CCN(c2cccc(C(F)(F)F)c2)CC1 (stereo not drawn) | inconclusive: 0.316 µM [activator, partial curve, poor fit] | – |
| CCOc1ccc(C(=O)NC(C(=O)NCCc2ccc(S(N)(=O)=O)cc2)C(C)C)cc1 (stereo not drawn) | inconclusive: 2.82 µM [activator, single point] | – |
| CC(=O)Oc1ccc(C(=O)Cc2ccccn2)c(O)c1 | inconclusive: 28.2 µM [activator, single point] | – |
| Cc1ccccc1NC(=O)c1c(C)nc(SCC(=O)OCc2ccccc2)c(C#N)c1-c1ccc(F)cc1 | inconclusive: 28.2 µM [activator, single point] | – |
| COc1ccc(OCc2cc(C(=O)N(C)Cc3cc(C)no3)no2)c(Cl)c1 | inactive | – |
| CN(C)C(=O)C1Cc2ccccc2CN1S(=O)(=O)c1ccc(F)cc1 (stereo not drawn) | inactive | – |
| NNC(=O)COc1ccccc1[N+](=O)[O-] | inconclusive: 28.2 µM [activator, single point] | – |
| Cc1ccc(C(=O)Nc2cccc(-c3cnc4ccccc4n3)c2)cc1 | inactive | – |
| O=C(CSc1cn[nH]n1)Nc1nc2ccccc2s1 | inconclusive: 0.447 µM [activator, full curve, poor fit] | – |
| CCCN1C2CCCC1CC(NC(=O)c1ccccc1OC)C2 (stereo not drawn) | inconclusive: 22.4 µM [activator, single point] | – |
| C/C(CCC(C)C)=N\Nc1ccc(S(N)(=O)=O)cc1[N+](=O)[O-] | inactive | – |
| O=[N+]([O-])c1c(NCCCO)cc(N2CCN(Cc3ccc4c(c3)OCO4)CC2)c2nonc12 | inactive | – |
| COc1cccc2sc(Nc3nc4ccc(NC(C)=O)cc4s3)nc12 | inactive | – |
| COc1ccc([C@H]2C[C@@H](O)[C@H](n3cc(COC(=O)c4ccccc4)nn3)CN2C(=O)C2CCCCC2)cc1 | inactive | – |
| CCn1c(Sc2ccc(N)cc2Cl)nc2ccccc21 | inconclusive: 2.82 µM [activator, partial curve, poor fit] | – |
| CCOc1ccc2oc(C(=O)OCC(=O)N3C(C)CCCC3C)c(C)c2c1 (stereo not drawn) | inactive | – |
| CC(C)(C)c1ccc(OCCON2C(=O)CCC2=O)c(Cl)c1 | inactive | – |
| Cn1c2c(c(=O)n(C)c1=O)C(C(F)(F)F)(C(F)(F)F)N=C(CCC1CCCCC1)N2 | inactive | – |
| CC(Nc1nc(N2CCCCC2)nc2ccccc12)c1ccccc1 (stereo not drawn) | inactive | – |
| CCOc1ccc(N(CC(=O)Nc2ccc(Br)cc2)S(C)(=O)=O)cc1 | inconclusive: 28.2 µM [activator, partial curve, poor fit] | – |

| SMILES | Potency | activation |
| --- | --- | --- |
| Cc1cc(=O)[nH]c2nnc(-c3ccc(Br)cc3)n12 | inactive | – |
| Cc1cc(C)cc(N(C(=O)CNC(=O)c2ccco2)C(C(=O)NC2CCCC2)c2ccncc2)c1 (stereo not drawn) | inconclusive: 5.62 µM [activator, partial curve, poor fit] | – |
| Cc1cc(NC(=O)CN2C(=O)NC3(CCCCC3)C2=O)no1 | inconclusive: 3.55 µM [activator, single point] | – |
| CSc1ccc(C#N)cc1NC(=O)c1ccc(Cl)cc1Cl | inconclusive: 10 µM [activator, partial curve, poor fit] | – |
| O=C(OCc1c(F)cccc1Cl)c1cc([N+](=O)[O-])ccc1N1CCOCC1 | inconclusive: 7.08 µM [activator, partial curve, poor fit] | – |
| OC(COc1ccc2c(c1)OCO2)CN1CCN(c2ccc(F)cc2)CC1 (stereo not drawn) | inconclusive: 5.01 µM [activator, single point] | – |
| COc1ccc(NC(=O)c2sc3nc(N4CCOCC4)c4c(c3c2N)CCCC4)c(OC)c1 | inconclusive: 10 µM [activator, single point] | – |
| CN(C)S(=O)(=O)N(CC(=O)N1CCC(Cc2ccccc2)CC1)c1ccccc1 | inconclusive: 1.78 µM [activator, partial curve, poor fit] | – |
| CC(C)Oc1ccc(Nc2ncnc3ccccc23)cc1 | inconclusive: 20 µM [activator, partial curve, poor fit] | – |
| Cc1ccc([N+](=O)[O-])cc1N=Nc1c(-c2ccc([N+](=O)[O-])cc2)[nH]n(C(N)=S)c1=O | inactive | – |
| O=C(OCc1nc2ccccc2s1)c1ccc(Br)s1 | inactive | – |
| CCOC(=O)C1(Cc2ccc(OC)cc2)CCN(S(C)(=O)=O)CC1 | inactive | – |
| OCCCC1CCCN(Cc2cn[nH]c2-c2ccc(F)cc2F)C1 (stereo not drawn) | inactive | – |
| CCOC(=O)CNC(=O)c1ccccc1 | inconclusive: 3.55 µM [activator, single point] | – |
| COc1ccc(C)cc1NC(=O)Nn1cnnc1 | inconclusive: 10 µM [activator, partial curve, poor fit] | – |
| C=CCSc1nnc(Cc2cc(=O)[nH]c(=O)[nH]2)n1-c1cc(C)ccc1C | inconclusive: 5.01 µM [activator, single point] | – |
| Cc1c(C(=O)O)sc2nc3n(c(=O)c12)CCC3 | inconclusive: 3.98 µM [activator, single point] | – |
| Cc1ccc(NC(=O)Cn2c(=O)oc3ccccc32)cc1 | inconclusive: 20 µM [activator, single point] | – |
| O=C(NCc1ccccc1Cl)[C@@H]1CCCN1S(=O)(=O)c1ccc(Cl)cc1 | inactive | – |
| COC(=O)c1ccc(N2CCOCC2)c(NC(=O)c2cccs2)c1 | inconclusive: 1.58 µM [activator, partial curve, poor fit] | – |
| Cc1ccccc1N1CCN(C(=S)c2ccc([N+](=O)[O-])cc2)CC1 | inconclusive: 14.1 µM [activator, single point] | – |
| Cc1ccc(OCC(O)CNCc2ccc(F)cc2)cc1 (stereo not drawn) | inconclusive: 1.26 µM [activator, partial curve, poor fit] | – |
| CCc1nc(C)cn1S(=O)(=O)c1ccc2c(c1)OCCO2 | inconclusive: 22.4 µM [activator, single point] | – |

An excerpt from above in order of formula weight, descending.

| SMILES | Potency | activation |
| --- | --- | --- |
| COc1ccc(NC(=O)c2sc3nc(N4CCOCC4)c4c(c3c2N)CCCC4)c(OC)c1 | inconclusive: 10 µM [activator, single point] | – |
| CN(C)S(=O)(=O)N(CC(=O)N1CCC(Cc2ccccc2)CC1)c1ccccc1 | inconclusive: 1.78 µM [activator, partial curve, poor fit] | – |
| O=C(NCc1ccccc1Cl)[C@@H]1CCCN1S(=O)(=O)c1ccc(Cl)cc1 | inactive | – |
| O=C(OCc1nc2ccccc2s1)c1ccc(Br)s1 | inactive | – |
| CSc1ccc(C#N)cc1NC(=O)c1ccc(Cl)cc1Cl | inconclusive: 10 µM [activator, partial curve, poor fit] | – |
| OCCCC1CCCN(Cc2cn[nH]c2-c2ccc(F)cc2F)C1 (stereo not drawn) | inactive | – |

Reference: PubChem BioAssay AID624291 (National Center for Advancing Translational Sciences (NCATS), 2012)
